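Genome-wide siRNA knockdown in TC32 Ewing sarcoma cells, comparing luciferase light from an NR0B1-promoter reporter with a CMV-promoter reporter 48 hours after transfection. Each siRNA was applied at 20 nM. A z-score of the log NR0B1-over-CMV signal, less the median of siRNAs with the same seed; more negative means a stronger specific loss of the NR0B1 reporter.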

This is part of the screen; most of the strongest results are not listed here. Sequences are the guide (antisense) strand, without overhang.

siRNA	gene	seed-corrected z-score
UCCGUGACGAUGUAAAUGG	SRC	-0.359
UUUACUGAGACUGAGGUUG	GABRA5	-0.02243
UUUGUUGUAGCAUUAUAGC	KLHL2	0.08843
AAUCCAGUCACAGUUAGCC	OVCH2	-0.6473
UUUUCGACAUAUAUGCAUC	CHTOP	0.1851
UUGAUAGAAAGAAUCCACA	DPH3	-0.1753
ACGUGUACCACAUUGUUGG	ATG2A	0.6277
UCAUUAACCGCCGCAAUUC	ZNF830	0.158
UUGGGCACCAUGCUUAUCU	BPI	1.146
UUUCGAUUCCGUCUGACUC	CTSG	0.7216
UACAGGAUCAUACUCCUUC	MAPRE2	0.9024
UACUCUCCAUCAGCACGGC	MFAP4	0.1392
CUCUAGGUUAAACUCCUGG	GH1	-0.0913
UUGGAAAUGAUCUCGACUC	ATP6AP1L	-0.3978
AUCCUCAACAUCACUGCUU	LZTS2	-0.01181
AAACUUAUUCUAGUGCUGG	PRR3	0.6781
UAGUGGAUCAGUGUUAUAG	WDR45B	0.5221
UAUCGUUAGAGCUUUCAGG	ZDBF2	-1.242
UACGAGCUAGGAUUCCAGC	ATIC	0.0761
UCAUCUCUAAAUCAGUUGG	MED4	-1.044
UAACUGCAGAGUCAUAGGA	TMEM182	-0.01771
UAGGUAACCAGAGAAGUCG	EVA1C	0.6138
UAUGAGGUAAGCUAGGAGC	CLINT1	-1.052
UGACCCACAAGGUUCAUGC	C20orf85	-0.3448
UCAGAGCCUUGGACAUUGC	OR56B4	0.114
UGUCCUUACAAAAAUAACU	NATD1	-0.3492
AGGCUGUCCAGAACUCUCC	MALL	-0.8466
AAUAGUAUCCUUCAGACUC	PGAM1	-0.01476
ACAUGGAUAUUUACUGUCC	SAXO1	0.008239
AAAUCGAUCUAUCUGUGCC	RANBP9	-0.2649
UGGGUAUUGAGGUUAGAGC	ZSCAN20	-0.02571
UAUGUGAUUCACAGCAGCG	C10orf76	-0.5652
UGAGUAACAGCCGUUCAUG	ID1	0.007974
UUUUCUGAGCCUUAUAUCU	ADIPOR2	-0.1679
UUUGUUGAUGAUCAGCUCC	SYMPK	-0.3659
UGACCUUAUACAACUCUCC	TROAP	0.07764
AAUGGGAAAACCGACUGUC	LGALS3	-0.1494
UUCCAGGCAAAGUAAGCUC	PSMA2	0.05094
AACGGUCAGAGUAUCGUCC	SRSF5	0.07738
UAAUAUCACCGCACUGUUC	ENOX1	0.338
AGAGCAUUAAGCGCAGGAC	CCDC81	0.5373
UGUCCUCCCUUUUUCAAGC	CPLX2	-1.35
UCUGAGACACGUGAUACAC	THSD1	0.9406
AUGAUUCUGAGCGUAGGCC	FUK	-0.01013
UUGGGUUGUAUUGGGAGUC	DDX24	-0.665
UUCCGUGUAGAUAUUCAGC	SLCO4A1	-0.7485
UUUGGGUCCUCGAUGAAGU	CACNA2D2	0.2117
AACGGCUUUAGUUCCACUG	PRRC2A	-0.01386
UGAUGAAAGAUGCGAAACG	KRT82	-0.1687
UUUUCUCGAGCUUCUGCCG	MAP7D1	-1.16
UUUGUGACCCUUUUCUCUC	GPR61	0.3108
UUCUUUGUGGGCAGAUUGC	CIAPIN1	0.06819
UUUGAACUUGGAGCGGAUG	AP2A1	0.405
AUAGUACUUCCGAUGCUGC	C2orf70	-0.3857
UCCUGGAUGACGUAGACCC	IQCF3	0.4567
UUCUUUUUGACCCUGCUGG	C11orf86	-0.3648
AGAGCAUAAAUUACGAGGG	TEKT4P2	-0.3801
UCCAAAACAUCUAUGUUCU	VNN3	-0.5887
UCCAUUUCCCUGACAAUUC	ZNF831	-0.7229
UUUGUGACACCCAUCCGCU	FUT5	-0.5455
UUCACGAACACUGUCAAAG	SGOL2	-0.1361
UUCCUUCAGCUCGCGAUUC	ATF5	-0.7555
UAUCAUAUUCACAAGACUG	RALGPS2	0.1105
UUCAAAAUCUGCAAGGUCG	FGL1	0.6381
UAGAAAACAAUGCAGUCCU	RHOC	0.4037
UGUUUGCACGUAGUGCUCC	HMCN2	-1.246
UCAGAGAAAGGAGAGCACA	TMEM54	0.5535
UUUUGAGUCAGAUAUCUUC	GPR156	0.2282
UUGAUGGGACCUGAAGUGC	LCE3C	0.1091
UAUUGUAUCUUCUCAUUUC	WBSCR17	0.2736
UGAGUUUGAAGGUGUCUUC	KCNIP3	0.3893
UUGCGAAUCACAUGAACUC	TBX15	-0.3542
AGCUUGACCAGAAAUGACA	SCRIB	-1.263

Some entries from above, unchanged:

| siRNA | gene | seed-corrected z-score |
|---|---|---|
| `UUUUCUCGAGCUUCUGCCG` | MAP7D1 | -1.16 |
| `UGUCCUCCCUUUUUCAAGC` | CPLX2 | -1.35 |
| `AGAGCAUAAAUUACGAGGG` | TEKT4P2 | -0.3801 |
| `UUUGUGACACCCAUCCGCU` | FUT5 | -0.5455 |
| `AGGCUGUCCAGAACUCUCC` | MALL | -0.8466 |
| `UGACCCACAAGGUUCAUGC` | C20orf85 | -0.3448 |
| `UGAGUUUGAAGGUGUCUUC` | KCNIP3 | 0.3893 |
| `UAUCAUAUUCACAAGACUG` | RALGPS2 | 0.1105 |

Source: PubChem BioAssay AID1159506 (NCATS, 2015).